In paper PMC7499972:
These are yes or no findings as the source states them, for the method shown. In cells and extracts the contact can be indirect. Here binding means that the protein was enriched with, or labelled near, the bait; the list need not be complete.

Amino acid sequences for entries named in this document (tags omitted).
UniProt P19793: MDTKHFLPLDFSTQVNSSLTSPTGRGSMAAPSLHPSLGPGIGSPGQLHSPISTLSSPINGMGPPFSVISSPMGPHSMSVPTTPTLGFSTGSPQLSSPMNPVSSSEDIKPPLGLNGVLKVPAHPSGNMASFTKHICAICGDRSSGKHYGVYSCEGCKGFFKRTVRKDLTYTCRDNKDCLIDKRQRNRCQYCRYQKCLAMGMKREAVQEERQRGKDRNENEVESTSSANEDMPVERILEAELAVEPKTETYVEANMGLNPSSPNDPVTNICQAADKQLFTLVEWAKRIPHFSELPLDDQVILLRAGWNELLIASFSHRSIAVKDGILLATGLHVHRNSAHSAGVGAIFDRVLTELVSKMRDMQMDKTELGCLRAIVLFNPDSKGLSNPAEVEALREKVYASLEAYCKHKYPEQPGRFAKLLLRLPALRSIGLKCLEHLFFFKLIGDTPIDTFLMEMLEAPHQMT
UniProt P28702: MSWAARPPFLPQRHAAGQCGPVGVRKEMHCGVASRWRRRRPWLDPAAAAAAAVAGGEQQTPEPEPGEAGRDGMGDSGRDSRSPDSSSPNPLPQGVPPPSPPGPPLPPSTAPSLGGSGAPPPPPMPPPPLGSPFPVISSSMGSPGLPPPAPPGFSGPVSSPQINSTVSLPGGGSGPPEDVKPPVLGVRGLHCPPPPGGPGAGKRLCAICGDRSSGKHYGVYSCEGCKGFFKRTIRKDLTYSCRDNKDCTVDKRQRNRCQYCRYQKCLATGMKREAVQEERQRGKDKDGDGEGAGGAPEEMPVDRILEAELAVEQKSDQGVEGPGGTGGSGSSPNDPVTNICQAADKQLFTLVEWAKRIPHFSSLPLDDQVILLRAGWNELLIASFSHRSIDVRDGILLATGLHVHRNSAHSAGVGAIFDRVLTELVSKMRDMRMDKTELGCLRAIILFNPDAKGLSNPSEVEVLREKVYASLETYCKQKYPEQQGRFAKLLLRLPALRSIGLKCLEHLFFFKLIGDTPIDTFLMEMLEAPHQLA
UniProt Q92731: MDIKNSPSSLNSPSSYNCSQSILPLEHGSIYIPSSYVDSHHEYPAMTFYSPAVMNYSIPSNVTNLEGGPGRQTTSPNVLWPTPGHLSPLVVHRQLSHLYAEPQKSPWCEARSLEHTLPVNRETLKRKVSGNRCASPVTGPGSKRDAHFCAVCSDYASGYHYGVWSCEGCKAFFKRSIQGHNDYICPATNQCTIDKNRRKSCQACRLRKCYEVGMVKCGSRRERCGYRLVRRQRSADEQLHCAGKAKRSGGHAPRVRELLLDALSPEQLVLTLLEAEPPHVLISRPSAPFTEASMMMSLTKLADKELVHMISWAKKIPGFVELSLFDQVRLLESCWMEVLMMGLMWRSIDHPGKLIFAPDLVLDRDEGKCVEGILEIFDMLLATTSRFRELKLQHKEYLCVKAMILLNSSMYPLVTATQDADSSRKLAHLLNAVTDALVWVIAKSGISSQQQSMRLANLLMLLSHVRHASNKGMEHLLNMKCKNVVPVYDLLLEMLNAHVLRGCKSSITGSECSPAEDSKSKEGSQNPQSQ

T1: CLPTM1L, bait of the mass spectrographic analysis in A549 cells (human) (UniProt Q96KA5)
T1 sequence: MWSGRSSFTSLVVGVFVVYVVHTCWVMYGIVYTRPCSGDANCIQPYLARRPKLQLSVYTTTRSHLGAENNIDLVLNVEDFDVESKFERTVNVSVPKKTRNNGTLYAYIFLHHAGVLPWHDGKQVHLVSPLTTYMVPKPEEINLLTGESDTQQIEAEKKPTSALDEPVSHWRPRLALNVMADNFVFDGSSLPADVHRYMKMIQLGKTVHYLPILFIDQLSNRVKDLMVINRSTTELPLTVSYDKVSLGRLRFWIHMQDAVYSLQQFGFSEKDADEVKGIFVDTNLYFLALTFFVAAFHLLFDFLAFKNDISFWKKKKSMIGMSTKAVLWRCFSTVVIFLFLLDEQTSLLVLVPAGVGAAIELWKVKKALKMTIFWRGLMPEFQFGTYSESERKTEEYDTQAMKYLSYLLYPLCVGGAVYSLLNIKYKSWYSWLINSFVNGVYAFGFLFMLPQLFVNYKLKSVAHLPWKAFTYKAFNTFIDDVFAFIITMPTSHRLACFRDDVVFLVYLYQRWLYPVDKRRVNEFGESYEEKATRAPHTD

B1: PPARα (protein, UniProt Q07869 1-468)
chain: MVDTESPLCPLSPLEAGDLESPLSEEFLQEMGNIQEISQSIGEDSSGSFGFTEYQYLGSCPGSDGSVITDTLSPASSPSSVTYPVVPGSVDESPSGALNIECRICGDKASGYHYGVHACEGCKGFFRRTIRLKLVYDKCDRSCKIQKKNRNKCQYCRFHKCLSVGMSHNAIRFGRMPRSEKAKLKAEILTCEHDIEDSETADLKSLAKRIYEAYLKNFNMNKVKARVILSGKASNNPPFVIHDMETLCMAEKTLVAKLVANGIQNKEAEVRIFHCCQCTSVETVTELTEFAKAIPGFANLDLNDQVTLLKYGVYEAIFAMLSSVMNKDGMLVAYGNGFITREFLKSLRKPFCDIMEPKFDFAMKFNALELDDSDISLFVAAIICCGDRPGLLNVGHIEKMQEGIVHVLRLHLQSNHPDDIFLFPKLLQKMADLRQLVTEHAQLVQIIKKTESDAALHPLLQEIYRDMY

The molecules below were run against T1, CLPTM1L, bait of the mass spectrographic analysis in A549 cells (human) (assay: affinity purification with mass spectrometry; mass spectrographic analysis of CLPTM1L in A549 cells; how CLPTM1L was isolated is not told).
In the case of RXRα (from UniProt P19793 1-462), the binding is reported as “binds”.
In the case of RXRβ (from UniProt P28702 1-533), the binding is reported as “binds”.
With “Estrogen receptor β (ERβ) in A549 cells (from UniProt Q92731 1-530)” the binding was “binds”.
B1 was tested, and the binding was “binds”.
